Several values for one entry are separate records, joined by “and”; a condition that tells them apart may be missing. Equal entries are not always repeated.
Test system: PDGFR alpha
Test: PDGFR alpha peptide library screening (PEPSCAN-based ELISA)
Assay type: binding, human
Details: CLIPS peptide library of first three extracellular domains

| Molecule | PDGFR alpha epitope, aa residues identified through library screening (ls) |
| --- | --- |
| PDGF-BB: human PDGF-BB, natural binding partner (physiological ligand) of PDGFR alpha [reference compound] | 92-106 and 169-183 |
| Vk13B8: recombinant human monoclonal IgG1, VH PAM (SEQ ID No. 3) paired with Vk13B8 VL (SEQ ID No. 4); non-agonistic anti-PDGFR alpha (antibody, listed as Homo sapiens, V domains shown) VH: GLVKPLETLSLTCSVSGGSVSDGSYFWNWIRQPPGKGLEWIGYAYSRGTTNYSPSLKGRITISVDKSKNQISLKLTSVTPADTAVYYCARDSFEIWGQGTMVTV VL: DIQMTQSPSSLSASVGDRVTITCRASQGISNYLAWFQQKPGKAPKSLIYAASSLQSGVPSKFSGSGSGTDFTLTISSLQPEDFATYYCQQYNSFPYTFGQGTKLEIK | 36-50 |
